# Library screening results

Chains of the proteins cited; added tags and fusions are not shown.
UniProt E9BF75, entry or part of it: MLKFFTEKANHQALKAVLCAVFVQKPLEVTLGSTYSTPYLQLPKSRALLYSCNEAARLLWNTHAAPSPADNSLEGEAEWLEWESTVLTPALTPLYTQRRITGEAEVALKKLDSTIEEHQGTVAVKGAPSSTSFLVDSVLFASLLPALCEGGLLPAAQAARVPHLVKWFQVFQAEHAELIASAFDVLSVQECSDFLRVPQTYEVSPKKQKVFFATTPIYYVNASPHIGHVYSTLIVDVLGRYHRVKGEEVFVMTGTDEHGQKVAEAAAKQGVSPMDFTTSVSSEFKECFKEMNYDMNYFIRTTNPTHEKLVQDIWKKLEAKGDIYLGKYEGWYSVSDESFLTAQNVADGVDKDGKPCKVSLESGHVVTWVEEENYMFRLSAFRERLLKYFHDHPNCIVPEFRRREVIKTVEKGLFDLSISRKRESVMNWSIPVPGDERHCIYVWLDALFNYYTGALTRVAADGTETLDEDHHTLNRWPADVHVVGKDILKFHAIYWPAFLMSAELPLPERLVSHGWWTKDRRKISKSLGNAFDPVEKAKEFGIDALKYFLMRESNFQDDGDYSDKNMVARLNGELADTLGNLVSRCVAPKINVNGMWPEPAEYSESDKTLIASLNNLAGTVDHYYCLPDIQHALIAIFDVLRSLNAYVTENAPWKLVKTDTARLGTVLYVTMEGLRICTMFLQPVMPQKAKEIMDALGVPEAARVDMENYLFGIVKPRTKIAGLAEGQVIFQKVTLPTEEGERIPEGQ

Measurements from “University of Dundee, Small-Polar-MMV Screening Library” (2021), ChEMBL document CHEMBL3988442.

Mtb heat-shock: 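Assay on Mycobacterium tuberculosis, filed only as a heat shock assay from Cornell; the read-out is not stated. The concentration is filed as 10 mM, unlikely as a test dose, so the dose is not known. The record gives no direction; compounds that gave an IC50 in retests scored well above the rest, so higher reads as stronger inhibition. Size under these conditions: about 69,000 compounds, about 930 of them at 50% or above in at least one test.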
LdMetRS: 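Primary screen of methionyl-tRNA synthetase; the read-out is not stated. Target: Methionyl-tRNA synthetase (putative), Leishmania donovani (UniProt E9BF75). The test concentration is not given. Values are per cent inhibition. Of about 68,000 compounds tested this way, about 24 (0.035%) reached 50% or more in at least one test.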
Mtb growth Cornell: 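Whole-cell assay for inhibitors of Mycobacterium tuberculosis growth, labelled Cornell in the record; the read-out is not stated. The concentration is filed as 10 mM, unlikely as a test dose, so the dose is not known. The record gives no direction; compounds strong in two other growth screens of this library score well above the rest, so higher reads as stronger inhibition. About 53,000 compounds were tested under these conditions; 1.7% (about 900) showed 50% or more at least once.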

Results are percentages, as filed. The controls that fix the scale are not given in the record; negative values are as filed. Compounds were drawn at random from those tested, without regard to their results. A dash means the value is not listed here; it may have been measured.

| SMILES | Mtb heat-shock | LdMetRS | Mtb growth Cornell |
|---|---|---|---|
| `Cc1occc1C(=O)N1CCC[C@]2(C[C@@H](OCc3ccncc3)CO2)C1.O=C(O)C(F)(F)F` | 8.193 | - | 20.37 |
| `CN(Cc1ccco1)Cc1cncc2c1CCN(S(C)(=O)=O)C2.Cl.Cl` | -19.18 | - | -5.919 |
| `COc1cccc(NC(=O)NCc2cnn(C)c2)c1` | 17.13 | 18.92 | 2.363 |
| `CC(=O)N1CCC(c2cccc(NC3CCOCC3)n2)CC1` | 7.025 | 9.841 | 13.93 |
| `COCCCNC(=O)Cc1nc(-c2ccncc2)n[nH]1` | -44.73 | 13 | 6.979 |
| `COCCN(Cc1ccoc1)S(=O)(=O)c1ccc(F)c(Cl)c1` | -3.813 | 10.42 | -13.24 |
| `CC(C)CCc1nc(CN2CCOC(Cn3cncn3)C2)cs1` (centres unmarked) | -17.29 | 10.34 | 15.81 |
| `CCN(CC)C(=O)c1ccc(NC(=O)CNc2ccc(F)cc2Cl)cc1` | -5.476 | 18.31 | 30.03 |
| `CNc1nc(CNC(=O)Nc2cccc(F)c2)cs1` | 13.81 | 9.206 | 13.27 |
| `Cc1nc(NC2CC2)c2c(n1)c(C)nn2C` | -10.52 | 16.25 | 42.11 |
| `CCN(Cc1nccs1)Cc1cc(Cl)ccc1OC` | -5.873 | 9.192 | 13.02 |
| `COc1ccc(CN2CCC(O)(CN3CCCCC3)C2)c(C)c1` (centres unmarked) | -27.37 | 19.94 | 5.312 |
| `NC(=O)c1cc(CC2CCCN(Cc3cnccn3)CC2)ncn1` (centres unmarked) | 16.42 | 17.55 | 26.49 |
| `Cc1n[nH]c(C)c1NC(=O)CN1CCOC(Cn2cccn2)C1` (centres unmarked) | -12.13 | 19.44 | - |
| `Cc1cnn(CC2CN(CC(=O)N(C)Cc3cccs3)CCO2)c1` (centres unmarked) | -15.92 | 18.88 | - |
| `COC(=O)c1ccc(S(=O)(=O)N2CCC(Oc3cccnn3)CC2)cc1` | -1.724 | 10.84 | 16.68 |
| `COc1ccc(C2CCCN2C(=O)CCNc2ncccn2)cc1` (centres unmarked) | 24.31 | 9.36 | -34.18 |
| `COCCN(CCOC)C(=O)c1cccc(Cn2nc(C)cc2C)c1` | -12.76 | 2.484 | -27.29 |
| `Cc1ncncc1C(=O)N1CCCN(Cc2nccn2C(C)C)CC1` | 4.498 | 15.86 | 16.25 |
| `CNC(=O)CN(C)C(=O)c1ccc(-c2nc(C)cs2)cc1` | 18.41 | 17.14 | 0.4607 |
| `Cc1cc(CN2CCN(C(=O)CCCc3nc(C(C)C)no3)CC2)on1` | -2.008 | 20.67 | - |
| `CC[C@@H](Cn1ncc2ccccc2c1=O)NC(=O)c1cnccn1` | -24.08 | 4.787 | 7.062 |
| `CCCN1CCC=C(C2c3nc[nH]c3CCN2C(=O)c2ccco2)C1` (centres unmarked) | -3.875 | 4.604 | -19.27 |
| `Nc1ncnc2[nH]c(N3CCCCC3)nc12` | 0.2903 | 15.79 | 25.03 |
| `Cc1cc(=O)n(CCNS(=O)(=O)c2cccc(C(F)(F)F)c2)cn1` | -1.885 | 17.62 | 15.09 |
| `Cc1nc2cc(C(=O)N(CCC#N)CCC#N)ccc2n1C` | 3.1 | 19.93 | 14.57 |
| `CCCc1nc(CN2CCCC2Cn2cncn2)cs1` (centres unmarked) | 11.18 | 18.31 | 12.37 |
| `Cc1ncc(CNCC(=O)NCC(F)(F)F)n1-c1ccccc1` | -2.445 | 19.41 | 0.6255 |
| `COc1ccc(C2SC(C)=Nc3c2c(=O)[nH]n3C2CCCCC2)cc1O` (centres unmarked) | 15.3 | 31.95 | - |
| `Cc1ccc(C(=O)N2CCC3(CC2)CC(N2CCCC2)C3)cc1.O=C(O)C(F)(F)F` | -18.27 | - | 8.738 |
| `COCC(=O)NC[C@@]1(COc2cnccn2)C[C@@H](O)[C@@H](O)C1` | - | 4.511 | - |
| `Cc1ccc(NCc2cn3c(n2)CN(Cc2ccc(C)o2)CC3)nn1.O=C(O)C(F)(F)F.O=C(O)C(F)(F)F` | 2.723 | - | -8.657 |
| `O=C(O)C1CCCN(c2nc3c(-c4ccccc4)csc3c(=O)[nH]2)C1` (centres unmarked) | 27.72 | 7.914 | -27.04 |
| `Cc1c(C(=O)N2CCN(C)[C@@H]3CS(=O)(=O)C[C@@H]32)[nH]c2ccc(F)cc12` | - | 13.71 | - |
| `Cc1c(C(=O)O)cnn1-c1ccc(-c2nc(C(C)(C)C)no2)cn1` | -8.642 | 13.4 | 29.77 |
| `CC(C)NC(=O)C1CCc2nnc(CNC(=O)c3cccnc3)n21` (centres unmarked) | 1.728 | 12 | - |
| `CC(C)N(CCNC(=O)N1CCCC(N(C)C)C1)C1CC1` (centres unmarked) | 5.18 | 8.437 | -32.37 |
| `CCOc1ccc(Br)cc1S(=O)(=O)N(CC)Cc1ccc(N(C)C)cc1` | 13.93 | 7.542 | -8.979 |
| `O=C(O)C(F)(F)F.c1ccc(N2CCOC3(CCCN(c4ncccn4)C3)C2)nc1` (centres unmarked) | 36.25 | - | -4.068 |
| `CCN1CCN(S(=O)(=O)c2cc(C)c(Cl)cc2C)CC1` | -15.46 | -2.233 | -0.9661 |
| `CC(C)C(=O)NCCCNC(=O)Nc1cc(-c2ccccc2)ns1` | 1.256 | 19.83 | 30.68 |
| `O=C(NCC1CN(c2ncccn2)Cc2nccn2C1)c1cccnc1` (centres unmarked) | - | 15.22 | - |

The first 5 entries again:

- Cc1occc1C(=O)N1CCC[C@]2(C[C@@H](OCc3ccncc3)CO2)C1.O=C(O)C(F)(F)F | Mtb heat-shock: 8.193%; Mtb growth Cornell: 20.37%
- CN(Cc1ccco1)Cc1cncc2c1CCN(S(C)(=O)=O)C2.Cl.Cl | Mtb heat-shock: -19.18%; Mtb growth Cornell: -5.919%
- COc1cccc(NC(=O)NCc2cnn(C)c2)c1 | Mtb heat-shock: 17.13%; LdMetRS: 18.92%; Mtb growth Cornell: 2.363%
- CC(=O)N1CCC(c2cccc(NC3CCOCC3)n2)CC1 | Mtb heat-shock: 7.025%; LdMetRS: 9.841%; Mtb growth Cornell: 13.93%
- COCCCNC(=O)Cc1nc(-c2ccncc2)n[nH]1 | Mtb heat-shock: -44.73%; LdMetRS: 13%; Mtb growth Cornell: 6.979%